Laboratory results reported in article PMC5286394, “Architecture of the yeast Elongator complex” (EMBO Reports, 2016).
Results are given in words; binding and its absence hold for the method and conditions named. For some of these results: Binding can be weak; no strength is given. Tags and fused reporters may be left off the sequences shown. Values belong to the substance of their own block, whether it stands above or below them.

Tests used:
Assay in all cases: pull-down; GST pull-down: 20 μg GST-tagged protein and increasing amounts of untagged partner with glutathione Sepharose, 2 h at 4°C, 20 mM Tris pH 7.5, 150 mM NaCl, 5 mM DTT, 0.1% Tween-20; five washes; SDS–PAGE, Coomassie; both purified
[1] = molecular target: T1, GST-tagged Elp3 KAT domain (aa348–557) (S. cerevisiae) (UniProt Q02908)
T1 sequence: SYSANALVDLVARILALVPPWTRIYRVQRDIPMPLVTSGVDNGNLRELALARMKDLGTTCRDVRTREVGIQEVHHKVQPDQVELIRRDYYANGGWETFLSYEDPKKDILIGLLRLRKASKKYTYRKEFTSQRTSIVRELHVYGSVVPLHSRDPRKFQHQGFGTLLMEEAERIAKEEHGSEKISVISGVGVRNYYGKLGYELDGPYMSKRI

[2] = molecular target: T2, GST-tagged Elp3 SAM domain (aa72–389) (S. cerevisiae) (UniProt Q02908)
T2 sequence: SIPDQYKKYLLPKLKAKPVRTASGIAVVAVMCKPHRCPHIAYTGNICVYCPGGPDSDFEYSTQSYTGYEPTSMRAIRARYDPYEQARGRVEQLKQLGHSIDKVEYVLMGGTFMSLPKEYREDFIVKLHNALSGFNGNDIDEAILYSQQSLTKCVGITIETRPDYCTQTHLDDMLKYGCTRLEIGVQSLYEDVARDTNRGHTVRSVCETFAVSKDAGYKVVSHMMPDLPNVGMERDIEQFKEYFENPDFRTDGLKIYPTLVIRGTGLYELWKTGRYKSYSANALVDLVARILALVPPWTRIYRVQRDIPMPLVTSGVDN

[3] = molecular target: T3, GST-tagged full-length Elp1 (S. cerevisiae) (UniProt Q06706)
T3 sequence: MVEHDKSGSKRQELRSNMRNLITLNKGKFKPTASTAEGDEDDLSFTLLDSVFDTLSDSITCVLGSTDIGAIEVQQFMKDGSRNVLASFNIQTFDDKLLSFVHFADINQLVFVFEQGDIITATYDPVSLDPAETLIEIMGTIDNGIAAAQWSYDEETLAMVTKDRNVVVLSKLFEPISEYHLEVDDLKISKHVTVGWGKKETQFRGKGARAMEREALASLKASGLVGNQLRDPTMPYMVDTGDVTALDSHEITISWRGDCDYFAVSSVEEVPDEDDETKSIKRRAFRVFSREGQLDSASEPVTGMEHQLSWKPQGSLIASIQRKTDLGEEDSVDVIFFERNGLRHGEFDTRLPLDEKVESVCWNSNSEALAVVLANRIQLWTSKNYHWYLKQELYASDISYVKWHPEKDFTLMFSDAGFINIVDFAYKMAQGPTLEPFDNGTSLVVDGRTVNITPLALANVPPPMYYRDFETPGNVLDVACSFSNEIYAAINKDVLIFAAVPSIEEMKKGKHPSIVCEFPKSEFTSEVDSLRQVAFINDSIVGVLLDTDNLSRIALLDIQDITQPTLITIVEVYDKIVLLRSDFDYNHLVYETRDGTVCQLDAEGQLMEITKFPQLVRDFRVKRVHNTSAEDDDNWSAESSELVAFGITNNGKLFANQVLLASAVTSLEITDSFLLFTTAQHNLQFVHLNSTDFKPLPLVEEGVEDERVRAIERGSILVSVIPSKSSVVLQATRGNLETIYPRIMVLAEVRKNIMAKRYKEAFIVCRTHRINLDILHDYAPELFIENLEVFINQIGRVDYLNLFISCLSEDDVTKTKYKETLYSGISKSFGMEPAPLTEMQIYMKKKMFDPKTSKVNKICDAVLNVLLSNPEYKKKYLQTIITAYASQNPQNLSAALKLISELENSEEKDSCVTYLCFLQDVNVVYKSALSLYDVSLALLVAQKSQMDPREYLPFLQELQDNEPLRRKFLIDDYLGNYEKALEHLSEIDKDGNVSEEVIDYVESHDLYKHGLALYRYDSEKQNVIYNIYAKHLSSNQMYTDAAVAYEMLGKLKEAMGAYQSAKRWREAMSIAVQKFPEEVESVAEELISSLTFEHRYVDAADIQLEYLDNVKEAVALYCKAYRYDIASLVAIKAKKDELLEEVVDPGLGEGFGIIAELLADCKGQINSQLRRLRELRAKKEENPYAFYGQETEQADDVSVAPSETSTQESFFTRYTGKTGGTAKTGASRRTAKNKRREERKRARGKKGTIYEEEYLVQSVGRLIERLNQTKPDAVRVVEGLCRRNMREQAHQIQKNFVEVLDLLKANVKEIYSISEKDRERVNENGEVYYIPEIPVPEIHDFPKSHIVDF

[4] = molecular target: T4, GST-tagged C-terminally truncated Elp1 (Elp1 1–734) (S. cerevisiae) (UniProt Q06706)
T4 sequence: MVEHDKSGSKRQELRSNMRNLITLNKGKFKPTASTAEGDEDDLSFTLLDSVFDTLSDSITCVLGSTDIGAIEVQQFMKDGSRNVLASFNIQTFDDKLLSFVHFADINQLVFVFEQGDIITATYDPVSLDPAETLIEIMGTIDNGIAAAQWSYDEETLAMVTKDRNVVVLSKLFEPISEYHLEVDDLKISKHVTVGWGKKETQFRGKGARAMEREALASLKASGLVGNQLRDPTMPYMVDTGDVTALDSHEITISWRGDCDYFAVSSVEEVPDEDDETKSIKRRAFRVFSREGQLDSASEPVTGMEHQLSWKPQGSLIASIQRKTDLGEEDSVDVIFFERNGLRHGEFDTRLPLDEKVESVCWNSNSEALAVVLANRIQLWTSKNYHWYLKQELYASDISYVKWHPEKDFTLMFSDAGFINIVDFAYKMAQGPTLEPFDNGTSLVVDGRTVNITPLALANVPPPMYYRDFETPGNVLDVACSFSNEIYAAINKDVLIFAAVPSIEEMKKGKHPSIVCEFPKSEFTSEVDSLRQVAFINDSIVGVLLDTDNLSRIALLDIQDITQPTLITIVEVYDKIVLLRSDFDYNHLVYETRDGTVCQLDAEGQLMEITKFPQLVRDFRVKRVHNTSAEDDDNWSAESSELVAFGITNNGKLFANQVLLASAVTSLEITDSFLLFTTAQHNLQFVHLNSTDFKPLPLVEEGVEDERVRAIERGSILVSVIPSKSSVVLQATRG

binding [1]: no binding
binding [2]: binds
Substance: Elp45(1–270)6 (S. cerevisiae) (complex)

binding [3]: binds
Substance: Elp456 lacking the Elp4 loop region (aa168–233) (S. cerevisiae) (complex)

binding [4]: no binding
Substance: Elp4 with a deletion of the short conserved stretch at the N-terminus (S. cerevisiae) (domain or fragment)
